{"sequences": {"note": "By UniProt entry, the sequences of proteins in these tests, tags left out. Where a name states a change or a piece, a line headed by the entry shows the natural chain unless it says otherwise.", "UniProt Q16651": "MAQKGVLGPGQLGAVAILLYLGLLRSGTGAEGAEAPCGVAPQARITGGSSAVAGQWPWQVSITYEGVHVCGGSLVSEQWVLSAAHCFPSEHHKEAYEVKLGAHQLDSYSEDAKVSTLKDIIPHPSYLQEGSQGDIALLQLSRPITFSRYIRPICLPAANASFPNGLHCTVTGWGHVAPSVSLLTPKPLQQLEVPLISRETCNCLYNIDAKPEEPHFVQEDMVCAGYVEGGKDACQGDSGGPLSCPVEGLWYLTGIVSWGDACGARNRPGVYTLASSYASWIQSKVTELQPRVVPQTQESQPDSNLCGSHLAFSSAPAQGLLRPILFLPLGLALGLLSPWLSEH"}, "source": "paper PMC5884512", "binders": {"B1": {"name": "recombinant human serpin E2/PN-1 (protease nexin-1) (protein, UniProt P07093 20-398)", "chain": "SHFNPLSLEELGSNTGIQVFNQIVKSRPHDNIVISPHGIASVLGMLQLGADGRTKKQLAMVMRYGVNGVGKILKKINKAIVSKKNKDIVTVANAVFVKNASEIEVPFVTRNKDVFQCEVRNVNFEDPASACDSINAWVKNETRDMIDNLLSPDLIDGVLTRLVLVNAVYFKGLWKSRFQPENTKKRTFVAADGKSYQVPMLAQLSVFRCGSTSAPNDLWYNFIELPYHGESISMLIALPTESSTPLSAIIPHISTKTIDSWMSIMVPKRVQVILPKFTAVAQTDLKEPLKVLGITDMFDSSKANFAKITTGSENLHVSHILQKAKIEVSEDGTKASAATTAILIARSSPPWFIVDRPFLFFIRHNPTGAVLFMGQINKP"}}, "biological_target": "S238A human prostasin converted into the double-chain form by matriptase (human) (UniProt Q16651)", "test": "SDS-stable complex formation detected by Western blot; 100 ng prostasin zymogen or matriptase-activated prostasin (10 nM matriptase serine protease domain, 20 min, 37°C) in 50 mM Tris/HCl pH 8.0, 100 mM NaCl incubated with 200 ng PN-1, HAI-1 or HAI-2 for 30 min at room temperature; reduced/non-boiled samples; anti-prostasin Western blot", "note": "These are yes or no findings as the source states them, for the method shown."}
{"binder": "B1", "values": [{"measurement": "binding", "result": "no binding (tested: 200 ng PN-1 with 100 ng prostasin)"}]}
